Results from US10328128B2, “Treatment of infection by human enterovirus D68” (priority 2014, dated 2019).

Tests used:
[1] = tested on: EV-D68 strain USA-MO/18947; experiment: CPE inhibition assay in RD cells; format: cell-based, Human enterovirus D68; settings: Enterovirus D, EVD68, 120 h, 100 CCID50 virus, 33° C., five days, read-out: Mean EC50 ± SD
[2] = tested on: EV-D68 1962 prototype strain (Fermon); experiment: CPE inhibition assay in RD cells; format: cell-based, Human enterovirus D68; settings: Enterovirus D, EVD68, 120 h, 100 CCID50 virus, 33° C., five days, read-out: Mean EC50 ± SD

SMILES: CNCCC(Oc1ccc(C(F)(F)F)cc1)c1ccccc1 (centres unmarked) [Fluoxetine, fluoxetine]
- EC50 [1]: 530 ± 150 nM
- EC50 [2]: 340 ± 40 nM
